Consider three substances from publication PMC6930887.

Sequences of proteins named here, by UniProt entry; tags and fusion partners are left off.
UniProt Q99720: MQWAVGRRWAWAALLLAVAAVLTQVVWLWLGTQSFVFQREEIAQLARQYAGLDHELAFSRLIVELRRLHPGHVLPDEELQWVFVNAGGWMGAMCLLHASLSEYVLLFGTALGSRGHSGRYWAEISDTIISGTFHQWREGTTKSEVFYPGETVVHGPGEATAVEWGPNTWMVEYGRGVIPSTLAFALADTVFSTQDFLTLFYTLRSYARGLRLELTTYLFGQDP

Assay [1] deals with N-terminally tagged Myc-σ1R (human) (UniProt Q99720). Description: SDS-PAGE western blot without heat denaturation; lysates of transfected HEK293T Δσ1R cells (1.0% triton X-100, 0.5% sodium deoxycholate, 150 mM NaCl, Tris 50 mM pH 7.5) kept on ice (4°C) in β-mercaptoethanol Laemmli buffer; 10% gel, 0.1% SDS running buffer; anti-σ1R (B-5) or anti-myc blot; cells pre-incubated 1 h with 1 μM haloperidol, 1 μM PD 144418, 10 μM (+)-pentazocine or 1% DMSO in some panels. On the technique in general: A western blot detects proteins with antibodies after separation by electrophoresis.

The target of assay [2] is N-terminally tagged Nluc-σ1R (human) (UniProt Q99720). The description is as above.
Assay [3] concerns the target unmodified wildtype (WT) sigma 1 receptor (σ1R) (human) (UniProt Q99720). Description: condition: only samples boiled (100°C) before SDS-PAGE; SDS-PAGE western blot after heating of the samples; as the on-ice protocol, but samples heated in the sample buffer (100°C boiling, or 70°C with or without ligands) before SDS-PAGE.

These are yes or no findings as the source states them, for the method shown. Some results given as binding are weak or reduced against the parent protein; the word gives no strength.

For “N-terminally tagged Myc-σ1R (from UniProt Q99720 1-223) (receptor)”, the binding entry in assay [1] is recorded as “binds weakly”.
Turning to “N-terminally tagged Nluc-σ1R (from UniProt Q99720 1-223) (receptor)”, the binding entry in assay [2] is given as “binds weakly”.
For the substance “unmodified wildtype (WT) sigma 1 receptor (σ1R) (from UniProt Q99720 1-223)”, the binding entry in assay [3] is listed as “no binding”.
